# Test results taken from the supplement of paper PMC4635364.
# Counter-ions that a name gives are not always drawn. This is one part of the list. This data set is noisy: repeats of one test often differ as much as different tests do.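 Human fetal ventral-midbrain neural progenitor line ReNCell VM, differentiated without mitogens. Images stained for doublecortin (early neurons) or tyrosine hydroxylase (dopaminergic neurons) were scored by blinded raters against untreated wells (0 = no change). Repeats and both raters were averaged, and compounds averaging 2 or higher were picked as hits for retesting.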
# Experiments:
# ReNCell VM [1] = assay: neuronal differentiation score (DCX+ cell fraction vs untreated, manual image score) (score (-3 to 3)); higher = more neuronal differentiation; conditions: 2 uM, 2 weeks
# ReNCell VM [2] = assay: dopaminergic neuron differentiation score (TH+ cell fraction vs untreated, manual image score) (score (0 to 3)); higher = more TH+ dopaminergic neuron differentiation; conditions: 2 uM, 4 weeks, BDNF 10 ng/ml + GDNF 10 ng/ml
Structure (SMILES),neuronal differentiation score (ReNCell VM [1]; library: LOPAC),neuronal differentiation score (ReNCell VM [1]; library: Prestwick),neuronal differentiation score (ReNCell VM [1]; library: Tocriscreen),dopaminergic neuron differentiation score (ReNCell VM [2]; library: LOPAC),dopaminergic neuron differentiation score (ReNCell VM [2]; library: Prestwick),dopaminergic neuron differentiation score (ReNCell VM [2]; library: Tocriscreen),neuronal differentiation score (ReNCell VM [1]; library: Phytochemical),dopaminergic neuron differentiation score (ReNCell VM [2]; library: Phytochemical),neuronal differentiation score (ReNCell VM [1]; library: Spectrum),dopaminergic neuron differentiation score (ReNCell VM [2]; library: Spectrum)
CCN(Cc1ccncc1)C(=O)C(CO)c1ccccc1 (stereo unspecified) [Tropicamide],inactive: 0,inactive: 0,inactive: 0,inactive: 0,inactive: 0,inactive: 0,,,,
O=c1cc(-c2ccc(O)cc2)oc2cc(O)cc(O)c12 [Apigenin],inactive: 0,,inactive: 0,inactive: 0,,inactive: 0,inactive: 0,inactive: 0,,
Cn1c(=O)c2c(ncn2C)n(C)c1=O [Caffeine],inactive: 0,inactive: 0,,inactive: 1,inactive: 1,,inactive: 0,inactive: 0,,
COCCOC(=O)C1=C(C)NC(C)=C(C(=O)OC(C)C)C1c1cccc([N+](=O)[O-])c1 (stereo unspecified) [Nimodipine],inactive: 0,inactive: 0,inactive: 0,inactive: 0,inactive: 0,inactive: 0,,,,
COc1ccc2[nH]cc(CCNC(C)=O)c2c1 [Melatonin],inactive: 0,inactive: 0,inactive: 0,inactive: 0,inactive: 0,inactive: 0,,,,
CS(=O)(=O)Nc1ccc([N+](=O)[O-])cc1Oc1ccccc1 [Nimesulide],inactive: 0,inactive: 0,inactive: 0,inactive: 0,inactive: 0,inactive: 0,,,,
CN(C)CCCN1c2ccccc2CCc2ccc(Cl)cc21 [Clomipramine hydrochloride],inactive: 0,inactive: 0,inactive: 0,inactive: 0,inactive: 0,inactive: 0,,,,
COc1cc(-c2ccc(=O)[nH]n2)ccc1OC(F)F [Zardaverine],inactive: 0,inactive: 0,active: 2,inactive: 0,inactive: 0,inactive: 0,,,,
CNCCCC12CCC(c3ccccc31)c1ccccc12 [Maprotiline hydrochloride],inactive: 0,inactive: 0,inactive: 0,inactive: 0,inactive: 0,inactive: 0,,,,
CCCCOc1cc(CC2CNC(=O)N2)ccc1OC (stereo unspecified),inactive: 0,,inactive: 0,inactive: 0,,inactive: 0,,,inactive: 0,inactive: 0
CC1=Nc2ccc(Cl)cc2S(=O)(=O)N1 [Diazoxide],inactive: 0,inactive: 0,inactive: 0,inactive: 0,inactive: 0,inactive: 0,,,,
COC(=O)[C@H]1[C@H]2C[C@H]3c4[nH]c5ccccc5c4CCN3C[C@H]2CC[C@@H]1O [Rauwolscine hydrochloride],inactive: 0,,inactive: 0,inactive: 0,,inactive: 0,inactive: 0,inactive: 0,,
CN1CCC(=C2c3ccccc3C=Cc3ccccc32)CC1 [Cyproheptadine hydrochloride],inactive: -1,inactive: 0,inactive: 0,inactive: 0,inactive: 0,inactive: 0,,,,
COc1ccc2c3c1O[C@H]1C[C@@H](O)C=C[C@@]31CCN(C)C2 [Galanthamine hydrobromide],,inactive: 0,inactive: 0,,inactive: 0,inactive: 0,inactive: 0,inactive: 0,,
CC(C)[N+]1(C)[C@@H]2CC[C@H]1C[C@@H](OC(=O)C(CO)c1ccccc1)C2 (stereo partly specified) [Ipratropium bromide],inactive: -1,,inactive: 0,inactive: 0,,inactive: 0,inactive: 0,inactive: 0,,
CC/C(=C(\c1ccccc1)c1ccc(OCCN(C)C)cc1)c1ccccc1 [Tamoxifen citrate],inactive: 0,inactive: 0,inactive: 0,inactive: 0,inactive: 0,inactive: 0,,,,
COc1ccc(C2CNC(=O)C2)cc1OC1CCCC1 (stereo unspecified) [Rolipram],inactive: 0,inactive: 0,inactive: 0,inactive: 0,inactive: 0,inactive: 0,,,,
COc1cc2nc(N3CCN(C(=O)C4CCCO4)CC3)nc(N)c2cc1OC (stereo unspecified) [Terazosin hydrochloride],inactive: 0,inactive: 0,inactive: 0,inactive: 0,inactive: 0,inactive: 0,,,,
COC(=O)[C@H]1[C@H]2C[C@@H]3c4[nH]c5cc(OC)ccc5c4CCN3C[C@H]2C[C@@H](OC(=O)c2cc(OC)c(OC)c(OC)c2)[C@@H]1OC [Reserpine],inactive: 0,inactive: 0,inactive: 0,inactive: 0,inactive: 0,inactive: 0,inactive: 0,inactive: 0,,
C=C1C(=O)O[C@H]2[C@H]1CC/C(C)=C/CC[C@@]1(C)O[C@@H]21 [Parthenolide],inactive: 0,inactive: 0,inactive: 0,inactive: 0,inactive: 0,inactive: 0,inactive: 0,inactive: 0,,
CC(C)C(=O)c1c(C(C)C)nn2ccccc12 [Ibudilast],inactive: 0,inactive: 0,inactive: 0,inactive: 0,inactive: 0,inactive: 0,,,,

# Structures from the list above that contain a nitro group on carbon, in the order listed:
Structure (SMILES),neuronal differentiation score (ReNCell VM [1]; library: LOPAC),neuronal differentiation score (ReNCell VM [1]; library: Prestwick),neuronal differentiation score (ReNCell VM [1]; library: Tocriscreen),dopaminergic neuron differentiation score (ReNCell VM [2]; library: LOPAC),dopaminergic neuron differentiation score (ReNCell VM [2]; library: Prestwick),dopaminergic neuron differentiation score (ReNCell VM [2]; library: Tocriscreen),neuronal differentiation score (ReNCell VM [1]; library: Phytochemical),dopaminergic neuron differentiation score (ReNCell VM [2]; library: Phytochemical),neuronal differentiation score (ReNCell VM [1]; library: Spectrum),dopaminergic neuron differentiation score (ReNCell VM [2]; library: Spectrum)
COCCOC(=O)C1=C(C)NC(C)=C(C(=O)OC(C)C)C1c1cccc([N+](=O)[O-])c1 (stereo unspecified) [Nimodipine],inactive: 0,inactive: 0,inactive: 0,inactive: 0,inactive: 0,inactive: 0,,,,
CS(=O)(=O)Nc1ccc([N+](=O)[O-])cc1Oc1ccccc1 [Nimesulide],inactive: 0,inactive: 0,inactive: 0,inactive: 0,inactive: 0,inactive: 0,,,,

# Next part:

Structure (SMILES),neuronal differentiation score (ReNCell VM [1]; library: LOPAC),neuronal differentiation score (ReNCell VM [1]; library: Prestwick),neuronal differentiation score (ReNCell VM [1]; library: Tocriscreen),dopaminergic neuron differentiation score (ReNCell VM [2]; library: LOPAC),dopaminergic neuron differentiation score (ReNCell VM [2]; library: Prestwick),dopaminergic neuron differentiation score (ReNCell VM [2]; library: Tocriscreen),neuronal differentiation score (ReNCell VM [1]; library: Phytochemical),dopaminergic neuron differentiation score (ReNCell VM [2]; library: Phytochemical),neuronal differentiation score (ReNCell VM [1]; library: Spectrum),dopaminergic neuron differentiation score (ReNCell VM [2]; library: Spectrum)
CCC1(c2ccccc2)C(=O)NCNC1=O [Primidone],inactive: 1,inactive: 0,inactive: 0,inactive: 0,inactive: 0,inactive: 0,,,,
Nc1nc2c(ncn2COCCO)c(=O)[nH]1 [Acyclovir],inactive: 0,inactive: 0,inactive: 1,inactive: 0,inactive: 0,inactive: 0,,,,
CN/C(=N\CCSCc1nc[nH]c1C)NC#N [Cimetidine],inactive: 1,inactive: 0,inactive: 0,inactive: 0,inactive: 0,inactive: 0,,,,
COC(=O)[C@@H]1[C@H]2C[C@H]3c4[nH]c5ccccc5c4CCN3C[C@@H]2CC[C@@H]1O [Yohimbine hydrochloride],inactive: 0,inactive: 0,inactive: 0,inactive: 0,inactive: 0,inactive: 0,inactive: 0,inactive: 0,,
COc1ccc2c(c1)c(CC(=O)O)c(C)n2C(=O)c1ccc(Cl)cc1 [Indomethacin],inactive: 0,inactive: 0,inactive: 0,inactive: 0,inactive: 0,inactive: 0,,,,
CCOC(=O)C1=C[C@]2(CC)CCCN3CCc4c(n1c1ccccc41)[C@@H]32 [Vinpocetine],inactive: 0,inactive: 0,inactive: 0,inactive: 0,inactive: 0,inactive: 0,inactive: 1,inactive: 0,,
O=C(NCC1CCCCN1)c1cc(OCC(F)(F)F)ccc1OCC(F)(F)F (stereo unspecified) [Flecainide acetate],inactive: -2,inactive: 0,inactive: 0,inactive: 0,inactive: 0,inactive: 0,,,,
CC(C)NCC(O)COc1cccc2[nH]ccc12 (stereo unspecified) [Pindolol],inactive: 0,inactive: 0,inactive: 0,inactive: 0,inactive: 0,inactive: 1,,,,
CN(C)CCC=C1c2ccccc2COc2ccccc21 [Doxepin hydrochloride],inactive: 0,inactive: 0,inactive: 0,inactive: 1,inactive: 0,inactive: 0,,,,
COc1ccc([C@@H]2Sc3ccccc3N(CCN(C)C)C(=O)[C@@H]2OC(C)=O)cc1 [Diltiazem hydrochloride],inactive: 0,inactive: 0,inactive: 0,inactive: 0,inactive: 0,inactive: 0,,,,
O=C(NCCNCC(O)COc1ccc(O)cc1)N1CCOCC1 (stereo unspecified) [Xamoterol hemifumarate],inactive: 0,inactive: 0,inactive: 0,inactive: 0,inactive: 0,inactive: 0,,,,
O=C1CC2(CCCC2)CC(=O)N1CCCCN1CCN(c2ncccn2)CC1 [Buspirone hydrochloride],inactive: 0,inactive: 0,inactive: 0,inactive: 0,inactive: 0,inactive: 0,,,,
CN1CCN(C2=Nc3cc(Cl)ccc3Nc3ccccc32)CC1 [Clozapine],inactive: 0,inactive: 0,inactive: 0,inactive: 0,inactive: 0,inactive: 0,,,,
Cc1oncc1C(=O)Nc1ccc(C(F)(F)F)cc1 [Leflunomide],inactive: 0,active: 2,inactive: 0,inactive: 0,inactive: 0,inactive: 0,,,,
Nc1cc(N2CCCCC2)nc(N)[n+]1[O-] [Minoxidil],inactive: 0,inactive: 1,inactive: 0,inactive: 0,inactive: 0,inactive: 0,,,,
COC(=O)Nc1nc2cc(C(=O)c3cccs3)ccc2[nH]1 [Nocodazole],inactive: 0,inactive: 0,inactive: 0,inactive: 0,inactive: 0,inactive: 0,,,,
COc1cc([C@@H]2c3cc4c(cc3[C@@H](O[C@@H]3O[C@@H]5CO[C@@H](C)O[C@H]5[C@H](O)[C@H]3O)[C@H]3COC(=O)[C@H]23)OCO4)cc(OC)c1O [Etoposide],inactive: 0,inactive: 0,inactive: 0,inactive: 0,inactive: 0,inactive: 0,inactive: 0,inactive: 0,,
CC[C@H](C)C(=O)O[C@H]1CCC=C2C=C[C@H](C)[C@H](CC[C@@H]3C[C@@H](O)CC(=O)O3)[C@H]21 [Mevastatin],active: 3,inactive: 1,active: 2,active: 2,active: 3,active: 2,,,,
Cc1cc(C(C)(C)C)c(O)c(C)c1CC1=NCCN1 [Oxymetazoline hydrochloride],inactive: 0,inactive: 0,inactive: 0,inactive: 0,inactive: 0,inactive: 0,,,,
Oc1ccc(/C=C/c2cc(O)cc(O)c2)cc1 [Resveratrol],inactive: 0,,inactive: 0,inactive: 0,,inactive: 0,inactive: 0,inactive: 0,,
